Measured data: PubChem BioAssay AID743448 (Peter MacCallum Cancer Centre, 2014)
Test: 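Third-round triage of 106 confirmed candidates in four colon lines under two drugs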 (follow-up of hits). System: four human colon cancer cell lines: HCT116-VR (vorinostat-resistant HCT116 derivative), SW480, SW620 and LIM1215. Reagents: siRNA pool against human genes, 40 nM siRNA pool. Time to read-out: drug added two days after transfection, read one day later. Conditions: vorinostat 2.5 µM on one half of each plate, etoposide 5 µM on the other half. Detection: 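Caspase 3/7 activity by luminescence and live-cell viability by fluorescence, each given as a ratio to mock-transfected wells and as a robust z-score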. Direction: caspase ratio to mock: higher = more caspase activity than mock; viability ratio to mock: higher = more live cells than mock. Rule for the call: 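a row is a hit if caspase relative to mock is 1.6 or above or viability relative to mock is 0.75 or below; wells dying heavily without drug are not called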. Calls: active = caspase or viability hit in this panel; inactive = no change, or unhealthy well.
The whole screen tested 106 reagents; this is a part drawn at random. 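Calls are per line and drug panel including etoposide, not vorinostat-specific; gene picks needed hits in two or more extra lines with vorinostat versus etoposide.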 Further read-outs or replicates are left out here.

PSMD13 (GeneID 5719) [SID135622112], cell line and drug panel LIM1215 cells with etoposide
- caspase ratio to mock: 1.27
- viability ratio to mock: 0.94
- Outcome: inactive

PSMD13 (GeneID 5719) [SID135622112], cell line and drug panel LIM1215 cells with vorinostat
- caspase ratio to mock: 2.7
- viability ratio to mock: 0.82
- Outcome: active

PSMD13 (GeneID 5719) [SID135622112], cell line and drug panel SW480 cells with etoposide
- caspase ratio to mock: 1.12
- viability ratio to mock: 0.87
- Outcome: inactive

PSMD13 (GeneID 5719) [SID135622112], cell line and drug panel SW480 cells with vorinostat
- caspase ratio to mock: 1.6
- viability ratio to mock: 0.81
- Outcome: active

PSMD13 (GeneID 5719) [SID135622112], cell line and drug panel SW620 cells with etoposide
- caspase ratio to mock: 0.87
- viability ratio to mock: 0.9
- Outcome: inactive

PSMD13 (GeneID 5719) [SID135622112], cell line and drug panel SW620 cells with vorinostat
- caspase ratio to mock: 1.56
- viability ratio to mock: 0.82
- Outcome: inactive

PSMD13 (GeneID 5719) [SID135622112], cell line and drug panel vorinostat-resistant HCT116 cells with etoposide
- caspase ratio to mock: 1.23
- viability ratio to mock: 0.96
- Outcome: inactive

PSMD13 (GeneID 5719) [SID135622112], cell line and drug panel vorinostat-resistant HCT116 cells with vorinostat
- caspase ratio to mock: 2.55
- viability ratio to mock: 0.74
- Outcome: active

C1orf210 (GeneID 149466) [SID152154222], cell line and drug panel LIM1215 cells with etoposide
- caspase ratio to mock: 4.7
- viability ratio to mock: 0.88
- Outcome: inactive

C1orf210 (GeneID 149466) [SID152154222], cell line and drug panel LIM1215 cells with vorinostat
- caspase ratio to mock: 1.92
- viability ratio to mock: 0.78
- Outcome: inactive

C1orf210 (GeneID 149466) [SID152154222], cell line and drug panel SW480 cells with etoposide
- caspase ratio to mock: 3.73
- viability ratio to mock: 0.84
- Outcome: active

C1orf210 (GeneID 149466) [SID152154222], cell line and drug panel SW480 cells with vorinostat
- caspase ratio to mock: 2.01
- viability ratio to mock: 0.82
- Outcome: active

C1orf210 (GeneID 149466) [SID152154222], cell line and drug panel SW620 cells with etoposide
- caspase ratio to mock: 2.72
- viability ratio to mock: 0.7
- Outcome: active

C1orf210 (GeneID 149466) [SID152154222], cell line and drug panel SW620 cells with vorinostat
- caspase ratio to mock: 1.76
- viability ratio to mock: 0.68
- Outcome: active

C1orf210 (GeneID 149466) [SID152154222], cell line and drug panel vorinostat-resistant HCT116 cells with etoposide
- caspase ratio to mock: 3.68
- viability ratio to mock: 1.01
- Outcome: active

C1orf210 (GeneID 149466) [SID152154222], cell line and drug panel vorinostat-resistant HCT116 cells with vorinostat
- caspase ratio to mock: 2.93
- viability ratio to mock: 0.85
- Outcome: active

TOX4 (GeneID 9878) [SID135624154], cell line and drug panel LIM1215 cells with etoposide
- caspase ratio to mock: 3.62
- viability ratio to mock: 0.94
- Outcome: inactive

TOX4 (GeneID 9878) [SID135624154], cell line and drug panel LIM1215 cells with vorinostat
- caspase ratio to mock: 2.74
- viability ratio to mock: 0.9
- Outcome: active

TOX4 (GeneID 9878) [SID135624154], cell line and drug panel SW480 cells with etoposide
- caspase ratio to mock: 1.33
- viability ratio to mock: 0.88
- Outcome: inactive

TOX4 (GeneID 9878) [SID135624154], cell line and drug panel SW480 cells with vorinostat
- caspase ratio to mock: 1.64
- viability ratio to mock: 0.86
- Outcome: active

TOX4 (GeneID 9878) [SID135624154], cell line and drug panel SW620 cells with etoposide
- caspase ratio to mock: 0.69
- viability ratio to mock: 0.88
- Outcome: inactive

TOX4 (GeneID 9878) [SID135624154], cell line and drug panel SW620 cells with vorinostat
- caspase ratio to mock: 1.21
- viability ratio to mock: 1.09
- Outcome: inactive

TOX4 (GeneID 9878) [SID135624154], cell line and drug panel vorinostat-resistant HCT116 cells with etoposide
- caspase ratio to mock: 1.4
- viability ratio to mock: 1.14
- Outcome: inactive

TOX4 (GeneID 9878) [SID135624154], cell line and drug panel vorinostat-resistant HCT116 cells with vorinostat
- caspase ratio to mock: 1.62
- viability ratio to mock: 1.03
- Outcome: active

TFAP2D (GeneID 83741) [SID135622988], cell line and drug panel LIM1215 cells with etoposide
- caspase ratio to mock: 2.47
- viability ratio to mock: 1.34
- Outcome: active

TFAP2D (GeneID 83741) [SID135622988], cell line and drug panel LIM1215 cells with vorinostat
- caspase ratio to mock: 3.46
- viability ratio to mock: 1.21
- Outcome: active

TFAP2D (GeneID 83741) [SID135622988], cell line and drug panel SW480 cells with etoposide
- caspase ratio to mock: 3.04
- viability ratio to mock: 1.13
- Outcome: active

TFAP2D (GeneID 83741) [SID135622988], cell line and drug panel SW480 cells with vorinostat
- caspase ratio to mock: 2.19
- viability ratio to mock: 1.09
- Outcome: active

TFAP2D (GeneID 83741) [SID135622988], cell line and drug panel SW620 cells with etoposide
- caspase ratio to mock: 1.06
- viability ratio to mock: 1.14
- Outcome: inactive

TFAP2D (GeneID 83741) [SID135622988], cell line and drug panel SW620 cells with vorinostat
- caspase ratio to mock: 1.33
- viability ratio to mock: 1.11
- Outcome: inactive

TFAP2D (GeneID 83741) [SID135622988], cell line and drug panel vorinostat-resistant HCT116 cells with etoposide
- caspase ratio to mock: 1.63
- viability ratio to mock: 1.21
- Outcome: active

TFAP2D (GeneID 83741) [SID135622988], cell line and drug panel vorinostat-resistant HCT116 cells with vorinostat
- caspase ratio to mock: 2.26
- viability ratio to mock: 1.12
- Outcome: active
